According to patent US8288112B2, “Protein, an antibody and measurement of the protein” (P&M Venge AB, priority 2006, dated 2012):

Experiment: Double antibody radioimmunoassay (RIA) for HPLB-II in biological fluids
Design: species or system human
Description: A double antibody radioimmunoassay (RIA) was developed for the measurement of HPLB-II. HPLB-II was labeled with ^125I by the chloramine-T method. Free ^125I was separated from labeled protein by gel filtration on a Sephadex G-25 column. Before RIA incubation, the labeled antigen was diluted in assay buffer (50 mM sodium phosphate, pH 7.4, containing 80 mM NaCl, 10 Mm Na-EDTA, 0.2% Bovine serum albumin, 0.02% NaN3 0.2% CTAB and 0.5% Tween 20) to 38000±2000 cpm/100 μl (tracer). A 50 μl solution of either sample or standard (2-128 μl/l) was sequentially mixed with 50 μl of labeled HPLB-II (tracer), 50 μl of specific antibodies raised in rabbit (diluted 1:60000 in assay buffer) and incubated for 3 h at room temperature. Thereafter, 0.5 ml of decanting suspension containing Sephadex anti-rabbit IgG raised in sheep were added and the incubation continued for 1 h at 4° C. HPLB-II-antibody complexes bound on Sephadex anti-rabbit IgG were separated and pelleted by centrifugation at 18° C. for 15 min at 4000 rpm. After decantation, the radioactivity was measured in a gamma counter.

B1: HPLB-II: Novel phospholipase B from human neutrophil granules; about 130 kDa oligomer of 25 and 45 kDa fragments of hypothetical protein FLJ22662 (protein)
chain 1: MPAEKTVQVKNVMDKNGDAYGFYNNSVKTTGWGILEIRAGYGSQTLSNEIIMFVAGFLEGYLTAPHMNDHYTNLYPQLITKPSIMDKVQDFMEKQDKWTRKNIKEYKTDSFWRHTGYVMAQIDGLYVGAK
chain 2: VLPGFENILFAHSSWYTYAAMLRIYKHWDFNIIDKDTSSSRLSFSSYPGFLESLDDFYILSSGLILLQTTNSVFNKTLLKQVIPETLLSWQRVRVANMMADSGKRWADIFSKYNSGTYNNQYMVLDLKKVKLNHSLDKGTLYIVEQIPTYVEYSEQTDVLRKGYWPSYNVPFHEKIYNWSGYPLLVQKLGLDYSYDLAPRAKIFRRDQGKVTDTASMKYIMRYNNYKKDPYSRGDPCNTICCREDLNSPNPSPGGCYDTKVADIYLASQYTSYAISGPTVQGGLPVFRWDRFNKTLHQGMAEVYNFDFITMKPILK
  level in intestinal fluid of patients with inflammatory bowel disease: 22 to 52 µg/L
  level in lung lavage fluids of patients with chronic obstructive pulmonary disease: 1 to 21 µg/L
  level in serum of patients with acute bacterial infections: 3 to 9 µg/L
Limit of detection 1 μg/L
  level in normal serum: undetectable
